The labels stand for the following.
B1: mitochondrial ribosome-binding factor A (protein, UniProt Q6P3B9 42-350)
chain: GSKNLLKKFASKTRKKFWYEGPSLGSHLTPRPSKHEFLTKTTSKKTRKEDSIRLRVLNGLLYKSLTELLCTPQVSQEVYDLNVELSKVSVTSDFSACRVYWKTGVSAEQNKHTESVLQRSAAYMRHLLISQQTLRNVPPIVFVQDKRDLVLAEVDRLLAEADFGPPDERDDLDGLRNADAQVPHDSPEPAAHPNLCGIDHEALNKQIMEYKRKKERGLQCQSLAPPSGREQAPEPTRLLRKREKVRSRWQHRDASPRSFLLGEEDEDEDSSTEWECHAHEAEDDDDHQEEELGADRGAQRGLCGKREQG
B2: pseudouridine synthase-like 1 (mouse, endogenous) (protein, UniProt A2ADA5 1-291)
chain: MGSCGAVGSVRARYLVFLQYLGTDFNGVAAVRGNPRAVGVLNFLEEAAKRLNSVDPVRFTISSRTDAGVHALSNAAHLDIQRRPGQSPFSPEVVAKALNTHLKHPAIRVLKAFRVPNDFHARHAATSRTYQYRLATGCSWPNQLPVFEQNVCWALQTEYLDMAAMQEAAQHLLGTHDFSAFQSAGSPVTNTVRTLRRVSVSPGPASPFVLPEGSRRLQFWTLEFESQSFLYRQVRRMTAVLVAVGLGILAPTQVKVILESQDPLGKYQARVAPARGLFLKSVLYDNFGPTS
B3: Era-like 12S rRNA chaperone 1 (protein, UniProt Q9CZU4 21-437)
chain: VGSHAGREWLAPPGCLLGNQARCVSCVVGSTFSGPLLASASSRYGQDSALDRILGFSQPDSSLVPSVPAVSVHRDEQNLLLVHTPDMPENPRVLRVVLLGAPNAGKSTLSNQLLGRKVFPVSKKVHTTRCQALGVITEKETQVILLDTPGIISPVKQKRHHLERSLLEDPWTSMESADLVVVLVDVSDKWTRSRLNPQVLQCLTKFSQVPSILVLNKVDCLKQKSVLLELTAALTEGVVNGKKLNIKQALRSRSSTHCPGPETEGPNAHSVRNPQRIGWPYFQEIFMLSALNNKDVNTLKQYLLTQAQPGPWEFHSGVLTSQTPEEICANKIREKLLEYLPEEVPYGVQQKTVIWEEGPSGELVIQQNLLVPKESHVRILIGQKGLLISQIAQEVGRDLMDIFHCDVLIRLSVKLLK
B4: nitric oxide-associated protein 1 (mouse, endogenous) (protein, UniProt Q9JJG9 1-693)
chain: MLPARLACGLLCGLRRGPAPAAACYGPARWLLEGKCEVPIRQRASSLGRRVPPSSTATEDYAEGPDTEERFLFPEYVPERTPEEQVRELQELRELQQLQQEKERERLQQREERLQQKLRAGFRTLPVPEFPDASVPPSGIYCSGCGAELHCQHPGLPGYLPEEKFRDAAQAEGGPARTVCQRCWLLVHHGRALRLQVSRDQYLELVSAALRRPGPALVLYMVNLLDLPDALLPDLPKLVGPKQLIVLGNKVDLLPQDAPGYLKRLRKRLWDDCIRAGLVVAPGHQGPQYPAGDEPLEEIKNQNPSSRSRTVVKDVRLISAKTGYGVEEMISALQRSWRYRGDVYLVGTTNAGKSTLFNTLLESDYCTAKGSEAIDRATISPWPGTTLNLLKFPICNPTPYRMFKRQRRLQEDATKAEEDLSEEEQSQLNQLKKHGYIVGRVGRTFSYSREQDEVPFEFDADSLAFDMGSEPVVSVCKSTKQIELTPEDVKDAHWFYDTPGITKESCILNLLTEKEINTVLPTHSIIPRTFVLKPGMVLFLGGIARIDFLQGNQSAWFTVVASNFLPVHITSLDKADALYEKHAGHELLLVPMGGKERMAQFPPLVAEDITLKGGGKFEAVADIKFSSAGWVAVTPYSEGTLHLRGHTPEGTALTVHPPVLPYIVNVKGQRMKKSVAYKTKKPPSLVHNLKKHR
B5: cytochrome c oxidase assembly factor COX18 (protein, UniProt Q8VC74 64-331)
chain: AEEVLLGAQEATGLPWWSNIILSTVALRGAVTLPLAAYQHYILAKVENLQPEIKDIAKRLNQEVAVCARQFGWSKRVARLTYLKNMRRLISELYVRDNCHPFKATVLVWVQLPMWVFISVALRNLSTGATHSDGISVQEQLAAGGTLWFPDLTAVDSTWILPVSVGVVNLLIVEIFALQKIGTSRFQMYVTNFVRAVSVLMIPVAATVPSALVLYWLCSSLMGLAQNLLLRSPGFRQLCRIPPSKSDSETPYRDLSAAFCAKFLSRKR
B6: OCIAD1 (protein, UniProt Q9CRD0 1-247)
chain: MNGRADFREPNAQVSRPIPDIGGGYIPTEEEWRLFAECHEECFWFRSVPLAATSMLITQGLISKGILSSHPKYGSIPKLLFACIVGYFAGKLSYVKTCQEKFKKLENSPLGEALRSGELRRSSPPGHYTQKPKFDSNVSGQSSFGTSPAADNIEKEALPRYEPIPFSASMNESTPTGITDHIAQGPEPNLEESPKRKGVTYEELRSKNRESYGVTLPHKTDPSVRPMQERVPKKEVKVNKYGDTWDE
B7: mitochondrial translation initiation factor IF3mt (protein, UniProt Q9CZD5 95-276)
chain: GMMHRADVIRLMNKQDLRLVQRNTSSEPPEYQLMTGEQIHQERLKLREQEKAKPKTGPTMTKELVFSSNIGQHDLDTKSKQIQQWIEKKYHVQVTIKRRKDAEQSEEETEEIFNQILQTMPDIATFSSRPKAIRGGTASMCVFRHLSKKEEKAYRESQESQRRDTLSKDDDGNSKESDVVCQ
B8: cytochrome c oxidase assembly factor COA3 (protein, UniProt Q9D2R6 1-108)
chain: MAAPGAGDPLNAKNGNAPFAQRIDPSREKLTPAQLQFMRQVQLAQWQKTLPQRRTRNIMTGLGIGALVLAIYGYTFYSVAQERFLDELEDEAKAARARALERERASGP
B9: small integral membrane protein 4 (protein, UniProt Q8C1Q6 1-80)
chain: MFSRAQVRRALQRVPGKQRFGIYRFLPFFFVLGGAMEWIMIKVRVGQETFYDVYRRKASERQYQRRLEDTSETNLHKLIK
B10: cytochrome c oxidase assembly factor COX20 (protein, UniProt Q9D7J4 1-117)
chain: MAAAPEPHETEKKPFKLLGILDVENTPCARESILYGSLGSIVTGLGHFLVTSRIRRSCDVGVGGFILVTLGCWFHCRYNFAKQRIQERIAREGIKNKILYESTHLDPERKMKTNNSS
B11: complex I assembly factor TIMMDC1 (protein, UniProt Q8BUY5 1-285)
chain: MGAPPPAPRSRLCGAWGPFPRVFAAGAVAADSPGFVEDREQRSGVSDPGSLESGWDRLRQLFAKDEQQRFSKEIDYIYRAAVSAGIIGWAYGGIPAFIYAKKRYIEQSQAEIYHNRFDAVQSAHRAATRGFIRYGWRWSWRTAVFVTIFNTVNTGLTVYRNKDAMSHFAIAGAVTGGLFRINLGVRGLVAGSIIGALLGAPMGSLLMALEKYSGETVQERRQKEWKALHEQRLEEWRSSLQVTELLPMEIESGLEKIQPEGDAQRIEELLSLPRNPSSPHQQSKH
B12: cytochrome c oxidase assembly factor TMEM177 (protein, UniProt Q8BPE4 1-311)
chain: MAGPLWRAAAFIQRHRTSLLVGSCAGLFGVQISFHLFPDPIVQWLYQYWPQGQPAPLSPHLWSLFQEVLKDIGVPSGHCYKPFTAFTFQPVSAGFPRLPAGAVVGIPAIFLGGPVTNIEHSVIIHGQRVDWQSPAGTRLRDALTMSHNAQKFALAKEVVYLESGVAALQTLPAPACLAGTWAISVGAKHALGLYGGPMSLRTAFNLVAIVVGYVAYTFSKDSLTLALEGWLDRRTASLSAAYVQGGVEFYEKILSGNLALRSLLGRQGEKLYTPSGNIVPRHWFRINHLPYTTRRDSLQQMWRATVSPGRF
B13: neugrin (protein, UniProt Q99KS2 19-293)
chain: RCGFASQVMAGPGSVSCEPDPDSDWEPEERELQEVESALKRQKKAMRFQKIRRQMEAPGAPPRTLTWEAMEQIRYLHKEFAESWSVPRLAEGFDVSTDVIRRVLKSKFVPTLEQKLRQDQKVLKKAGFTREIGQLPVSEDTLKALSAGRSVSGLLMAGDEVSSKSQNHSTALKVAKSHPHSTDAQKKREGRDKRIQVLEESLVPATTALGHQRELQKSATSDSEATGRAGSDTLPSAVLLEELKPGEPGDQSFSSKVVQRGHDFFDSNGNFLYRI
B14: NDUFAF4 (protein, UniProt Q9D1H6 1-173)
chain: MGARVTRALRNFNVEKRAEREISKRKPSMAPKHPSTRDLLQEHRSQYPEIEEVVSKKDNKLLSLLRDVYVDSKDPVPALPVKVEPRQEPKEFRLPIGNHFDKNITDIPKGKITVVEALTLLNNHKLSPETWTAEKIAQEYYLELKDVNSLLKYFVTFEVKILPPEDRKAIQSK
B15: retinol dehydrogenase 13 (protein, UniProt Q8CEE7 1-334)
chain: MSRFLLPVSVVGTVIGGTVLLKDYVAGGACPSKATIPGKTVIVTGANTGIGKQTALELAKRGGNVILACRDMEKCEVAAKDIRGETLNPRVRAERLDLASLKSIREFARKVIKEEERVDILVNNAAVMRCPHWTTEDGFEMQFGVNYLGHFLLTNLLLDKLKASAPSRIINLSSLAHVAGHIDFEDLNWQMKKYDTKAAYCQSKLAVVLFTKELSHRLQGSGVTVNALHPGVARTELGRHTGMHNSAFSGFMLGPFFWLLFKSPQLAAQPSTYLAVAEELENVSGKYFDGLREKAPSPEAEDEEVARRLWTESARLVGLAMAHGSPGRGHAIPR
B16: G-rich RNA sequence binding factor 1 (protein, UniProt Q8C5Q4 117-479)
chain: SQESKTTYLEDLPPLPEYELSPSKLGDEVDDVYLIRAQGLPWSCTVEDVLNFFSDCRIRNSENGIHFLLNRDGKRRGDALIEMESEQDVQKALEKHRMYMGQRYVEVYEINNEDVDALMKSLQVKPSPVLSDGVVRLRGLPYSCNEKDIVDFFAGLNIVDITFVMDYRGRRKTGEAYVQFEEPEMANQALLKHREEIGNRYIEIFPSRRNEVRTHVGSHKGKKMTSSPPTKYITEPEVVFEEHEVNEDIRPMTAFESDKEIELPKEMSEKLPEAVDFGTLPSLHFVHMRGLPFQANAQDIINFFAPLKPVRITMEYSSSGKATGEADVHFDTHEDAVAAMLKDRSHVQHRYIELFLNSCPKGK

The chains behind the UniProt entries cited, without tags or fusion partners. Residues count along the entry.
UniProt Q8R035, residues 30-206: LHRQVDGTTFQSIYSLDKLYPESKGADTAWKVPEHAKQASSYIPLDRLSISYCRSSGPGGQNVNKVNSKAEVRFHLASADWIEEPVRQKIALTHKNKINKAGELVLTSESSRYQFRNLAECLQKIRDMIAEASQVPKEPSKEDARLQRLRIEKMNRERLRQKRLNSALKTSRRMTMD
UniProt Q3V3R1, residues 32-977: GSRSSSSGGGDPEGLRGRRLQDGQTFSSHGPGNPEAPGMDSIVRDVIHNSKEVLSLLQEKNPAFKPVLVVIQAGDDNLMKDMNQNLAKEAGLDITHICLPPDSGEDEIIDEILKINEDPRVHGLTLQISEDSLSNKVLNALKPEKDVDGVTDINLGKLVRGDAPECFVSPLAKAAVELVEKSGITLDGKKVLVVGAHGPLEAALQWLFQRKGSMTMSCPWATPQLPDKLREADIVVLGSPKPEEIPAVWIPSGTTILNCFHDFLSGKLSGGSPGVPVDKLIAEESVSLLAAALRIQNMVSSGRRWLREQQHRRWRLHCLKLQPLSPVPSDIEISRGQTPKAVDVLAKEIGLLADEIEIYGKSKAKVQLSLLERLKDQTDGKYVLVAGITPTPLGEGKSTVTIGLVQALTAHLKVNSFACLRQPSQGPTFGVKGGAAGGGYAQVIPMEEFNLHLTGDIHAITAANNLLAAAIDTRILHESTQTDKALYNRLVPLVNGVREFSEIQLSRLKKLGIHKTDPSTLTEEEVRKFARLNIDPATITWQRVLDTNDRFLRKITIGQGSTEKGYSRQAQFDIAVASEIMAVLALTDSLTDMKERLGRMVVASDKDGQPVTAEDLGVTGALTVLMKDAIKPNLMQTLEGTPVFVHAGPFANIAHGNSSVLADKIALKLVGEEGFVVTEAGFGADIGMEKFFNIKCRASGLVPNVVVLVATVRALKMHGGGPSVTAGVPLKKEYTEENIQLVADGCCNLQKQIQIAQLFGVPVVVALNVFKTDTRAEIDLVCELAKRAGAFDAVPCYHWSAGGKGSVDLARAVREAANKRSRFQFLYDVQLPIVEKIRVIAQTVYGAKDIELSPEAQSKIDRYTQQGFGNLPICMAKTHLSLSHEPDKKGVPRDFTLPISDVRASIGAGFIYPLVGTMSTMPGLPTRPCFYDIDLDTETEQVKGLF
UniProt Q8C2E4: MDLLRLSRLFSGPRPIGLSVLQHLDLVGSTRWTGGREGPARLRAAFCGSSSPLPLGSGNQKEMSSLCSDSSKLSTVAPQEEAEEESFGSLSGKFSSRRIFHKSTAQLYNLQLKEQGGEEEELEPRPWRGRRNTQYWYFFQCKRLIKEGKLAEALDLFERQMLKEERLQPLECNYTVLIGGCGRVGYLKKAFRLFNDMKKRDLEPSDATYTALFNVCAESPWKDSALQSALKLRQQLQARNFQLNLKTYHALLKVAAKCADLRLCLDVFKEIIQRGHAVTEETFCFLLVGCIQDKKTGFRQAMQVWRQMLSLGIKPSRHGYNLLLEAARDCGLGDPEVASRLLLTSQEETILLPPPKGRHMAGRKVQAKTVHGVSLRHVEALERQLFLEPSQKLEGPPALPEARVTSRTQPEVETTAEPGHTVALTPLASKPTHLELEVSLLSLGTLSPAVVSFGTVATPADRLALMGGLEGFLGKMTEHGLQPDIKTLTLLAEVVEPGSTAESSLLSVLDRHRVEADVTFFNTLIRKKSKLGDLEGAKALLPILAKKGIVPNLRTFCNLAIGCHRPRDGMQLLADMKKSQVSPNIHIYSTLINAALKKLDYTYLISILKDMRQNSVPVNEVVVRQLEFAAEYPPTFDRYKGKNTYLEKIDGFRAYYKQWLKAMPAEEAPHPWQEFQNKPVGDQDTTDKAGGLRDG
UniProt Q8C167: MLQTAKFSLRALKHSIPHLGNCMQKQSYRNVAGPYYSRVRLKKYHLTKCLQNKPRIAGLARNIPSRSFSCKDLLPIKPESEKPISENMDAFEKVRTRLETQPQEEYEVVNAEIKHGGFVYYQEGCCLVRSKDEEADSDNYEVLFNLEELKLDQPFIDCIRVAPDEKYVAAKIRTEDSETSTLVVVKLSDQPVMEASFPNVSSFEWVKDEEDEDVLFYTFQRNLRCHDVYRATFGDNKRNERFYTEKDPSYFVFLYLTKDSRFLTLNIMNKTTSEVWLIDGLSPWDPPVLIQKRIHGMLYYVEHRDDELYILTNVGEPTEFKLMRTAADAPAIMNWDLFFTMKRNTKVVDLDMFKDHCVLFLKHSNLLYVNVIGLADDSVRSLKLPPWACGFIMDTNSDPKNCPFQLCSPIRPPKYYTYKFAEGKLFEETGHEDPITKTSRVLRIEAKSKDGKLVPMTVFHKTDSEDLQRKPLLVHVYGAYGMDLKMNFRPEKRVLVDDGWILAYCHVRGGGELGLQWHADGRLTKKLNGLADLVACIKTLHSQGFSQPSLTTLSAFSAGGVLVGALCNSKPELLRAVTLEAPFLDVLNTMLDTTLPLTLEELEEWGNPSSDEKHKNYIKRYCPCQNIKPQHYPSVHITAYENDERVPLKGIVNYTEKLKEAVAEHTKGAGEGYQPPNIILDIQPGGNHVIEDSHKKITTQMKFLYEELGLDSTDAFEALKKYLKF
UniProt Q9ERU3: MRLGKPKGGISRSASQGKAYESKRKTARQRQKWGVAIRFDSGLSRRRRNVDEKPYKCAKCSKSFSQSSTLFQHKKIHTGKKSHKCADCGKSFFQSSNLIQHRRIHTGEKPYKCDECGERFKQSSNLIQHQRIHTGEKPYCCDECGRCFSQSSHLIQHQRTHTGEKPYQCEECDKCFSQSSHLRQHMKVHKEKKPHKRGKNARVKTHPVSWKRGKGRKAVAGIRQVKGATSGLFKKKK
UniProt P0DN34: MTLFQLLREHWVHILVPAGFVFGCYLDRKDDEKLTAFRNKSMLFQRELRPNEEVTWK

These are yes or no findings as the source states them, for the method shown. Binding seen in cells or lysates may run through a third protein. A yes stands for co-enrichment or nearness to the bait. Other partners may have been found. For part of these data: No binding means not detected with the bait.

In one assay the target is mL62-FLAG (mouse) (UniProt Q8R035). The experiment in a line: affinity purification with mass spectrometry; mL62-FLAG co-immunoprecipitated from digitonin lysates of heart mitochondria of 18- to 20-week-old Mterf4 knockout MitoRibo-Tag mice (L/L, +/Cre, T/T) versus control MitoRibo-Tag mice (L/L, +/+, T/T); LFQ-MS/MS.
With “MTHFD1L (from UniProt Q3V3R1 32-977) (enzyme)”, the binding result is reported as “no binding”.
The same measure, in the same setting: in the case of B1 it was “binds”; in that of B2, “binds”; in that of B3, “binds”.

The target is the same in another assay. Briefly: affinity purification with mass spectrometry; mL62-FLAG co-immunoprecipitated on anti-FLAG M2 beads from 1% digitonin lysates of heart, liver and kidney mitochondria of MitoRibo-Tag mice, WT mice as control; 10 mM Tris-HCl pH 7.5, 100 mM KCl, 20 mM MgCl2; on-bead trypsin elution; LFQ-MS/MS.
Turning to “pentatricopeptide repeat-containing protein 1 (from UniProt Q8C2E4 1-695)”, the binding result is listed as “binds”.
On to “prolyl endopeptidase-like protein (from UniProt Q8C167 1-725)”, for which the binding result is on record as “binds”.
Consider “zinc finger protein 22 (from UniProt Q9ERU3 1-237)”, for which the binding result was “binds”.
The same measure, in the same setting: under NDUFB1 (from UniProt P0DN34 1-57) stands “binds”.
On the same count and under the same terms, under B4 stands “binds”.
Consider B5, for which the binding result was “binds”.
The same measure, in the same setting: under B6 stands “binds”; under B7, “binds”; under B8, “binds”.
The same measure, in the same setting: under B9 stands “binds”.
Still for that read-out and setting: under B10 stands “binds”.
As to B11, the binding entry is given as “binds”.
Same read-out and setting: under B12 stands “binds”.
Still for that read-out and setting: under B13 stands “binds”.
The same measure, in the same setting: in the case of B14 it was “binds”.
Consider B15, for which the binding result is reported as “binds”.
For the molecule B16, the binding entry is reported as “binds”.

The values are drawn from publication PMC6859486.
